Assay results taken from doi:10.1101/551317.
These are yes or no findings as the source states them, for the method shown. Tags and fused reporters may be left off the sequences shown.

The chains behind the UniProt entries cited, without tags or fusion partners.
UniProt Q6Q1P4: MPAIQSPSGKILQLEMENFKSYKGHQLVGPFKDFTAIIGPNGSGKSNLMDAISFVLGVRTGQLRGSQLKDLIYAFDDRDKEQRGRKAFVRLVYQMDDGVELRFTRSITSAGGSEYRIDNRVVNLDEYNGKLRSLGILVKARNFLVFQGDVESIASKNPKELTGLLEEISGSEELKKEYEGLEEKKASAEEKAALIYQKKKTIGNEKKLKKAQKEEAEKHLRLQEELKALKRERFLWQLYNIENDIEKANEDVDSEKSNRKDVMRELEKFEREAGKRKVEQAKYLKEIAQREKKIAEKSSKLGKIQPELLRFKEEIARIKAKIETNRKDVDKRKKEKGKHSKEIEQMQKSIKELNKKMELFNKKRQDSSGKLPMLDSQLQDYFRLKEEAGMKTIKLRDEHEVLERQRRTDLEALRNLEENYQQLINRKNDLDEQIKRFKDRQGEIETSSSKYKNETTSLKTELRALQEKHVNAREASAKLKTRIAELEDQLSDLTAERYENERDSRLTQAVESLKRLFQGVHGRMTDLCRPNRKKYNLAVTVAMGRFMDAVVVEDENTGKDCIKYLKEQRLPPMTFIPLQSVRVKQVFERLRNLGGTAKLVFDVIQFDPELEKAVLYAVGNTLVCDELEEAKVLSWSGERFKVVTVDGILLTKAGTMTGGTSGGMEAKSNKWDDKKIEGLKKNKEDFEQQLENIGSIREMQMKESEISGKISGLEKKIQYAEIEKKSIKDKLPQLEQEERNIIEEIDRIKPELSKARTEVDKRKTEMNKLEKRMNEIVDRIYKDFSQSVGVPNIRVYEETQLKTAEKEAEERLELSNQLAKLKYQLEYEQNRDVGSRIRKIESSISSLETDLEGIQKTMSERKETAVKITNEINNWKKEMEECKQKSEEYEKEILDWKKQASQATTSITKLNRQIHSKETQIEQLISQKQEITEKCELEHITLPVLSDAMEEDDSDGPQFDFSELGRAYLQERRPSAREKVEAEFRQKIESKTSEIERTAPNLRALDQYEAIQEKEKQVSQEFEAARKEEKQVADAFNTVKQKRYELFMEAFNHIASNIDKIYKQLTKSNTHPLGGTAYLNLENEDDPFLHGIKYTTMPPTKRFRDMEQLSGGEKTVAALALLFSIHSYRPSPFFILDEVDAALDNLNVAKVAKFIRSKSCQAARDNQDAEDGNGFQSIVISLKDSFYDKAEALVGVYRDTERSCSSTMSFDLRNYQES

Legend:
Assay in all cases: two-hybrid
[1] = biological target: T1, REC8, yeast two-hybrid fusion (Arabidopsis thaliana) (UniProt Q9S7T7)
T1 sequence: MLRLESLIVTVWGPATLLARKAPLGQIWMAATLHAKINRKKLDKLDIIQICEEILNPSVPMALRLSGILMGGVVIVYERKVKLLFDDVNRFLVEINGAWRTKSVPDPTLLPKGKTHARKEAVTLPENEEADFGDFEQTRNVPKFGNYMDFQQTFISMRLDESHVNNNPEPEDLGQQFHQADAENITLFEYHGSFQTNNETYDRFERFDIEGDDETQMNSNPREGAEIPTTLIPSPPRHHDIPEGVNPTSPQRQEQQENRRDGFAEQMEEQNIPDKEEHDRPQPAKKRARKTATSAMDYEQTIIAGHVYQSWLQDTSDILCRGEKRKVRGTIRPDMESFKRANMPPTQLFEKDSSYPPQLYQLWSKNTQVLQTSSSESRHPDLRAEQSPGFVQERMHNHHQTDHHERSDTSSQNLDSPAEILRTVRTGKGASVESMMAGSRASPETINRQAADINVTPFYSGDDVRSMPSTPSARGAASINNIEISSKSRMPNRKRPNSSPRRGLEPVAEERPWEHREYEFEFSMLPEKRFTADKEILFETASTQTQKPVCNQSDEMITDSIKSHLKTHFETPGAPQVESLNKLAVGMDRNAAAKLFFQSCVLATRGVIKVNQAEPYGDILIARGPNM

[2] = biological target: T2, WINGS APART-LIKE 1 (WAPL1), yeast two-hybrid fusion (Arabidopsis thaliana) (UniProt F4I7C7)
T2 sequence: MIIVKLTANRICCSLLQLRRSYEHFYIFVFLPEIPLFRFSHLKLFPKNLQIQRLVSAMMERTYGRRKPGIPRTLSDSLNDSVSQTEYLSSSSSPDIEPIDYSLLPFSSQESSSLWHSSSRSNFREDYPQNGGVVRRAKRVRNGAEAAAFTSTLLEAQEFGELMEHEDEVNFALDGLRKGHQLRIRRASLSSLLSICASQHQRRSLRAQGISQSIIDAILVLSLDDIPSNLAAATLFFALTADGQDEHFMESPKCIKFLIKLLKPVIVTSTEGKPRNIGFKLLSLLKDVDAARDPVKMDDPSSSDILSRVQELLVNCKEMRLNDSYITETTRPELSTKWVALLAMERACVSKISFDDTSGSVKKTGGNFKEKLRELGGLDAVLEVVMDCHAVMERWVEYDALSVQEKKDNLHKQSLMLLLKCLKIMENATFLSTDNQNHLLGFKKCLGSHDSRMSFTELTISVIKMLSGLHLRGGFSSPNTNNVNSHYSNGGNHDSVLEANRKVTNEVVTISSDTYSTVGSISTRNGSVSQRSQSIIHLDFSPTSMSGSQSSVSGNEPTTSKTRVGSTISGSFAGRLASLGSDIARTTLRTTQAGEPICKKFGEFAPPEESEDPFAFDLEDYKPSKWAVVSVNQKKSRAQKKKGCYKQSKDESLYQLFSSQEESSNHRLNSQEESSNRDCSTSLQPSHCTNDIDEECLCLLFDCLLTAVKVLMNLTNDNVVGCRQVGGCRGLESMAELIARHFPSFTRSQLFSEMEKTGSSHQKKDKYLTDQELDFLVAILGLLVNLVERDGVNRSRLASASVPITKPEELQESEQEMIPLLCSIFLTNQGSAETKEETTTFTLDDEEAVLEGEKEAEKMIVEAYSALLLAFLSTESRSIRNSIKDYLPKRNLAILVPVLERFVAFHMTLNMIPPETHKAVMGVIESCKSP

[3] = biological target: SMC1, yeast two-hybrid fusion (Arabidopsis thaliana) (UniProt Q6Q1P4)
[4] = biological target: T3, SMC3, yeast two-hybrid fusion (Arabidopsis thaliana) (UniProt Q56YN8)
T3 sequence: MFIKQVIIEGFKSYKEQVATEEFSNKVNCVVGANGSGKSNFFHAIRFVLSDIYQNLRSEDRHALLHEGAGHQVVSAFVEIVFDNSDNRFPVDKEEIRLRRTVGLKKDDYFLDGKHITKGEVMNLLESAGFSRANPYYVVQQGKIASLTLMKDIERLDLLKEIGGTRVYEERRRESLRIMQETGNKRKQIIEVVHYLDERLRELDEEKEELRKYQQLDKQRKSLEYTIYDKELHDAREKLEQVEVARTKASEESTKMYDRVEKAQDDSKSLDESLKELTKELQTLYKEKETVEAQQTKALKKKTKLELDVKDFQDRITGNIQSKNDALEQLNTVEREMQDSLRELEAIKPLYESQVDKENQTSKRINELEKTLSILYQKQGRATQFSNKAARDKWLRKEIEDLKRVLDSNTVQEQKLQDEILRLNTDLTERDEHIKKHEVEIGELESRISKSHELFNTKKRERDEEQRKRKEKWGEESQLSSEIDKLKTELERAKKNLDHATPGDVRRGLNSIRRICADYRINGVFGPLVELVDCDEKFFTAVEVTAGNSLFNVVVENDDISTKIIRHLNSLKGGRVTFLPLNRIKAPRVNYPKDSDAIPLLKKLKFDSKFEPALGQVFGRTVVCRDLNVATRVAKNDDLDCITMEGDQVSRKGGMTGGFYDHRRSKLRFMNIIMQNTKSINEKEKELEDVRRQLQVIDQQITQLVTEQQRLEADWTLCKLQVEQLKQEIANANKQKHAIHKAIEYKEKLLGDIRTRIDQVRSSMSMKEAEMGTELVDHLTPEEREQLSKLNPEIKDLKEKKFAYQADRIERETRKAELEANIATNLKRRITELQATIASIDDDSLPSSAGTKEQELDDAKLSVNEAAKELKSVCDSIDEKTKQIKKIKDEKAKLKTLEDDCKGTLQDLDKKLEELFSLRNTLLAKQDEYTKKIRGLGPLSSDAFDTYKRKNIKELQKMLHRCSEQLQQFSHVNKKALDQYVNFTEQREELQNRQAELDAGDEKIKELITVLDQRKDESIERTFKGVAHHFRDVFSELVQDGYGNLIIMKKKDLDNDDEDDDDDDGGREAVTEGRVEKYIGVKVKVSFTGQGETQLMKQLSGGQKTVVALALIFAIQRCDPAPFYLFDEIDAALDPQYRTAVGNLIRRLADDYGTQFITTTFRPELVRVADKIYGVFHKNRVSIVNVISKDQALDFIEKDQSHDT

Measured: binding

B1: SWITCH 1/DYAD (SWI1), yeast two-hybrid fusion (protein, UniProt Q9FGN8 1-639)
chain: MSSTMFVKRNPIRETTAGKISSPSSPTLNVAVAHIRAGSYYEIDASILPQRSPENLKSIRVVMVSKITASDVSLRYPSMFSLRSHFDYSRMNRNKPMKKRSGGGLLPVFDESHVMASELAGDLLYRRIAPHELSMNRNSWGFWVSSSSRRNKFPRREVVSQPAYNTRLCRAASPEGKCSSELKSGGMIKWGRRLRVQYQSRHIDTRKNKEGEESSRVKDEVYKEEEMEKEEDDDDGNEIGGTKQEAKEITNGNRKRKLIESSTERLAQKAKVYDQKKETQIVVYKRKSERKFIDRWSVERYKLAERNMLKVMKEKNAVFGNSILRPELRSEARKLIGDTGLLDHLLKHMAGKVAPGGQDRFMRKHNADGAMEYWLESSDLIHIRKEAGVKDPYWTPPPGWKLGDNPSQDPVCAGEIRDIREELASLKRELKKLASKKEEEELVIMTTPNSCVTSQNDNLMTPAKEIYADLLKKKYKIEDQLVIIGETLRKMEEDMGWLKKTVDENYPKKPDSTETPLLLEDSPPIQTLEGEVKVVNKGNQITESPQNREKGRKHDQQERSPLSLISNTGFRICRPVGMFAWPQLPALAAATDTNASSPSHRQAYPSPFPVKPLAAKRPLGLTFPFTIIPEEAPKNLFNV
no binding: [1] | [2] | [3] | [4]
